Literature values as cited in US20040092565A1, “Composition and method of sustaining chemotherapeutic effect while reducing dose of chemotherapeutic agent using cox-2 inhibitor and statin” (priority 2001, published 2004).
For part of these data: For at least one compound, name, drawing or mass did not settle the structure. Some results were stated once for a whole list of compounds, not compound by compound.

Legend:
adenomatous polyps = details: familial adenomatous polyposis
[1] = for most persons, based on package inserts

Compound | adenomatous polyps (adenomatous polyps) | time of most effect after administration (when maximum plasma levels are achieved) [1] [h]
Cc1ccc(-c2cc(C(F)(F)F)nn2-c2ccc(S(N)(=O)=O)cc2)cc1 [celecoxib, 4-[5-(4-methylphenyl)-3-(trifluoromethyl)-1H-pyrozol-1-yl]benzenesulfonamide] | reduction in adenomatous polyps | 
CC[C@H](C)C(=O)O[C@H]1C[C@@H](C)C=C2C=C[C@H](C)[C@H](CC[C@@H]3C[C@@H](O)CC(=O)O3)[C@H]21 [lovastatin] |  | 2 to 3
CS(=O)(=O)c1ccc(C2=C(c3ccccc3)C(=O)OC2)cc1 [rofecoxib] |  | 2 to 3
